# Percent effect of library compounds

The chains behind the UniProt entries cited, without tags or fusion partners. Residues count along the entry.
UniProt Q4DA54, 1-478: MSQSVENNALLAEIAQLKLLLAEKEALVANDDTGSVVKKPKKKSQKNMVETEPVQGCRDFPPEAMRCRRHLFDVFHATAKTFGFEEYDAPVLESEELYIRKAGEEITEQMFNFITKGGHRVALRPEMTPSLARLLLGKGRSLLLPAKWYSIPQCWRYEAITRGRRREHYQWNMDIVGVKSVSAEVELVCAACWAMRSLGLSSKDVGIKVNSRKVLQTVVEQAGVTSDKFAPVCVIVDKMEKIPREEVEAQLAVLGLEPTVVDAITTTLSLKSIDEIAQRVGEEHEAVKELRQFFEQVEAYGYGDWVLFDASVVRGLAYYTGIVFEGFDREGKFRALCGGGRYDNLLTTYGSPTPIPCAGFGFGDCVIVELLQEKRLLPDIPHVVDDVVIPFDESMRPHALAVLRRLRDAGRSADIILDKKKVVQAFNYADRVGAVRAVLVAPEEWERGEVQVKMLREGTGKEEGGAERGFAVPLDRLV
UniProt P9WNZ1, whole entry: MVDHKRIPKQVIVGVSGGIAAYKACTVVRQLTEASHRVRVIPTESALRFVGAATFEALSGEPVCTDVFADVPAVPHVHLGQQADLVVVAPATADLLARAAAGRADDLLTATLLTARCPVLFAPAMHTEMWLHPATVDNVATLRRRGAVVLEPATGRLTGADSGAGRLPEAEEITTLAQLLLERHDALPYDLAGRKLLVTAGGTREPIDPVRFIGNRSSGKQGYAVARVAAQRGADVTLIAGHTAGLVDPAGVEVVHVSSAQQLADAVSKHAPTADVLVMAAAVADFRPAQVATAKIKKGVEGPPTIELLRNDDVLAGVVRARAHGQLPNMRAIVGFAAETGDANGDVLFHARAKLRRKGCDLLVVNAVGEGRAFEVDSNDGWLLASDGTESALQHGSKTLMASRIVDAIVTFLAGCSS
UniProt P9WPC5, whole entry: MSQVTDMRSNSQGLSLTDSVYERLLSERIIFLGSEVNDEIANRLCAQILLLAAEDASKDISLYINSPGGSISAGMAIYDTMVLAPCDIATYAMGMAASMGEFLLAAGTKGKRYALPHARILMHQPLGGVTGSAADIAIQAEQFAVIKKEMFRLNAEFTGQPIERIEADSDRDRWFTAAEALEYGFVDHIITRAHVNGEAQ
UniProt P9WPC3, whole entry partner: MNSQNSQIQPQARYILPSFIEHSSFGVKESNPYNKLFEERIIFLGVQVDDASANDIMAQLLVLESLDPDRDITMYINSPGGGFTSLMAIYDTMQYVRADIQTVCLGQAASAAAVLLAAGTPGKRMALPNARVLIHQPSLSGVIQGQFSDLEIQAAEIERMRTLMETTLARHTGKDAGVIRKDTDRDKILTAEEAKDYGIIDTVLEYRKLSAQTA
UniProt Q8IDJ8, 1-583: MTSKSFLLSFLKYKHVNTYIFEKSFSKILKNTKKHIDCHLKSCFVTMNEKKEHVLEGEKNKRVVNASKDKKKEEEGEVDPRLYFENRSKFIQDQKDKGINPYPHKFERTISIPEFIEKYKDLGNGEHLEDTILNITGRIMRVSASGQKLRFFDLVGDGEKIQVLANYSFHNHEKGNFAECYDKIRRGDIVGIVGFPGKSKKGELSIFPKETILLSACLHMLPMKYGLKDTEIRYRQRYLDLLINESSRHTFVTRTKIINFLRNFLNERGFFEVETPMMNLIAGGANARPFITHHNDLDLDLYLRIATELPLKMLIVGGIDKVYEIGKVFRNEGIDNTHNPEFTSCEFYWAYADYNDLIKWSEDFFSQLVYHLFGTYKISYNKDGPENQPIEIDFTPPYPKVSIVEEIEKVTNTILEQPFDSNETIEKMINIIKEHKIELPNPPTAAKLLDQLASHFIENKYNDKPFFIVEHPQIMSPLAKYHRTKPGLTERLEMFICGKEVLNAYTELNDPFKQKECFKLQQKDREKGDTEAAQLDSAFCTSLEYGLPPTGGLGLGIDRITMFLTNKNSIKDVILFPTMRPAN

Data taken from ChEMBL document CHEMBL3988442, “University of Dundee, Small-Polar-MMV Screening Library” (2021).

Leishmania in macrophages: 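Cell assay of Leishmania donovani living inside macrophages; the read-out is not stated. Compounds at 30 µM. Direction is inferred from retests: higher values go with stronger inhibition. Size under these conditions: about 69,000 compounds, about 1,000 of them at 50% or above in at least one test.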
TcHisRS: 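Histidine-tRNA ligase, Trypanosoma cruzi CL Brener (UniProt Q4DA54). Enzyme assay of histidyl-tRNA synthetase; the read-out is not stated. Compounds at 30 µM. The record gives no direction; compounds that gave an IC50 in retests scored well above the rest, so higher reads as stronger inhibition. About 69,000 compounds were tested under these conditions; 0.045% (about 31) showed 50% or more at least once.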
CoaBC: 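Enzyme assay of CoaBC with a phosphate dye (Biomol Green) read at 650 nm. Target: Coenzyme A biosynthesis protein CoaBC, Mycobacterium tuberculosis (UniProt P9WNZ1). Tested at 30 µM. Direction is inferred from only a few compounds that gave an IC50; most scored high, so higher reads as stronger inhibition. Most strong results did not repeat in a second test. Size under these conditions: about 67,000 compounds, about 40 of them at 50% or above in at least one test.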
ClpP1P2: 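ClpP1P2, Mycobacterium tuberculosis (UniProt P9WPC5 and UniProt P9WPC3). Protease assay of ClpP1P2, read by the AMC dye that it sets free. Compounds at 50 µM. Higher reads as stronger inhibition, judged from the few compounds that gave an IC50. Most other retested compounds had strongly negative values. Of about 69,000 compounds tested this way, about 10 (0.015%) reached 50% or more in at least one test.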
PfKRS1: 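Enzyme assay of the cytosolic lysyl-tRNA synthetase in 384-well plates, read by luminescence. Target: Lysine-tRNA ligase, Plasmodium falciparum 3D7 (UniProt Q8IDJ8). Tested at 30 µM. Higher reads as stronger inhibition, judged from the few compounds that gave an IC50. Of about 69,000 compounds tested this way, about 49 (0.071%) reached 50% or more in at least one test.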

Results are given as percent effect. How 0% and 100% were set is not recorded. Most values in the screen are low, and negative values occur. The compounds are a random part of those screened. Two or more numbers in one place are separate tests of the same structure; such repeats can differ widely. A dash means the value is not listed here; it may have been measured.

structure,Leishmania in macrophages,TcHisRS,CoaBC,ClpP1P2,PfKRS1
CC1=N[C@@]2(CC[C@@H]3CN(C(=O)NC(C)C)C[C@@H]32)C(=O)N1CC(C)C,-,-0.4975,1.613,-12.43,0.8637
CN(CCN1CCCCCC1)c1nccc(N2CCC(O)C2)n1 (centres undefined),17.96,10.84,11.39,-3.388,4.363
O=C(O)C(F)(F)F.O=C(O)C(F)(F)F.[H][C@@]12CC(COc3ccccn3)C[C@@]1([H])N(Cc1csc(C)n1)CCO2 (some centres undefined),5.973,-,-,-,-
CSCc1cc(F)ccc1CNC(=O)N1CCCC1,22.49,4.255,4.303,-5.057,4
Cc1ccccc1C(=O)NCc1ccc(N2CCNC(=O)C2)cc1,4.847,9.167,8.742,0.1377,5.874
COCC1N(C(=O)Nc2ccccc2)[C@H]2CC[C@]1(O)CC2 (some centres undefined),-,10.11,3.632,-3.47,5.261
O=C(Nc1ccnn1C1CCCC1)c1ccc(NC2CC2)nc1,-0.457,12.99,-,0.7379,-0.1085
COc1ccnc(CN2CCC(O)(c3ccc(C)cn3)CC2)c1OC,-3.036,5.435,-5.607,-7.532,6.789
CCCn1nc2c(cc1=O)CN(CCN1CCCC1=O)CC2,24.44,10.76,-3.609,-26.07,2.618
CN(Cc1cccc(C#N)c1)c1ncc(C(N)=O)cc1Cl,-8.664,10,0.3891,-7.419,2.927
[H][C@@]12CCN(S(=O)(=O)c3cccnc3)[C@]1([H])CC[C@@H](c1nnc(C)o1)O2,-18.29,-,-,-,-
O=C(O)C(F)(F)F.[H][C@]12CN(Cc3ccc(Cl)cc3)C[C@@]1([H])S(=O)(=O)CC[C@@H]2C(=O)NCC(C)C,11.31,-,-,-,-
CCC(CC)N(C)S(=O)(=O)c1ccc(CCNC(C)=O)s1,38.19,2.116,-8.087,10.41,1.816
Cc1c(C)n(-c2ccccn2)c2nc3c(c(N)c12)CCCC3,43.5,-0.5464,7.672,11.14,7.452
CC1CCCN(c2ncc(-c3ccccc3F)c(-c3nccn3C)n2)C1 (centres undefined),8.348,9.605,8.475,-9.051,-0.7612
CNC(=O)CN1CCOCC2(CCCN(Cc3cccnc3)C2)C1.O=C(O)C(F)(F)F.O=C(O)C(F)(F)F.O=C(O)C(F)(F)F (centres undefined),7.807,-,-,-,-
O=C(C(CNCc1cccnc1)c1ccccc1)N1CCOCC1 (centres undefined),3.136,-1.345,4.569,-14.19,1.364
COCC(=O)NCCn1nc(-c2cc(C)oc2C)ccc1=O,-47.28,2.571,-3.425,-30.32,1.871
Cc1ccc(NC(=O)NCCc2ccncc2C)c(N(C)C)n1,-1.998 and 5.335,7.317,1.266,-19.53,-2.299
CC(NC1(CNC(=O)OC(C)(C)C)CCOCC1)c1ccccc1 (centres undefined),-1.035,5.357,-6.212,-4.002,2.478
CO[C@H]1CN(C(C)C)C[C@@H]1NC(=O)Nc1ccc2oc(C)cc2c1,-7.601,4.721,1.794,7.938,-1.938
NC(=O)c1cncc(N2CCN(Cc3cccc4nsnc34)CC2)n1,16.24,4.459,-,-6.176,-0.4677
COc1ccc(C2Nc3cc(Cl)ccc3C3=NCCN32)cc1OC (centres undefined),-24.91,1.639,2.85,-17.59,2.443
CCN(CC)C(=O)[C@@H]1C[C@@H](NC(=O)c2cccc(N(C)C)c2)CN1C,-4.43,5.063,-0.4808,-7.278,-1.853
COc1ccccc1OC1(C(=O)O)CCN(c2ncnc(C)c2C)CC1,-7.095,1.961,2.195,-3.354,0.4797
COCCN1CCN(S(=O)(=O)C2CC2)Cc2ccc(C)nc21.O=C(O)C(F)(F)F,17.14,-,-,-,-
CCCc1cc(NCc2noc(COC)n2)n2nccc2n1,20.98,11.34,-1.978,3.983,5.811
CN(Cc1cnn(C)c1)C1CCCN(Cc2noc(C3CC3)n2)C1 (centres undefined),1.651,-1.84,2.945,16.72,-2.162
Cc1cc(CN(C)C(=O)c2ccc(Cl)c(N3CCCC3=O)c2)no1,-8.225,-51.46,5.867,12.25,-1.898
CC(C)N(CCO)C(=O)C1CCC(=O)N(CCc2ccc(Cl)cc2)C1 (centres undefined),4.421,6.358,2.066,-3.387,1.329
O=C(O)C(F)(F)F.[H][C@@]12CCCO[C@]1([H])[C@H](N1CCOCC1)CN(C(=O)c1ccccc1)C2,18.69 and 34.2,-,-,-,-
CCC(C)[C@H](N)c1nnc(SCC(=O)Nc2ccc(Br)cc2)o1 (some centres undefined),-,-3.659,2.785,-12.27,-1.545
CCc1nc(C)c(C(=O)N2CCNCC2C(=O)NCc2ccncc2)o1 (centres undefined),18.45,9.189,5.128,-15.53,3.452
COc1ccc(OC)c(-c2csc(-c3cccc(C(=O)O)c3)n2)c1,3.244,-4.819,-5.941,-2.516,8.023
CCN1CCc2cc(-c3cncn3CCNC3CCS(=O)(=O)C3)ccc21 (centres undefined),-,10.77,0.2375,-15.88,3.85
CN(C)CCN1CC(C(=O)N2CCC(c3nccn3C)CC2)CC1=O (centres undefined),28.33,6.341,0.8783,-19.13,4.651
CN(C)c1ncc(-c2cc(C(=O)O)n(CC3CC3)c2)cn1,6.906,1.604,-2.277,-17.96,3.842
COc1cccc(OC)c1CN1CCC2(CC(Nc3ccncn3)C2)C1 (centres undefined),11.35,8.602,8.508,-15.2,0.8368
CNc1nc(C2CCCN2C(C)=O)nc2c1CN(CCO)CC2.O=CO (centres undefined),2.67 and 21.02,-,-,-,-
COc1ccc(S(=O)(=O)N2CCc3ccc(F)cc32)cc1C(=O)O,22.27,0.565,0.7833,-22.78,0.4494
COc1cc(N2CCC3(CCN(C(=O)c4cccnc4)CC3)C2)ncn1,-,4.372,2.397,0.03348,5.028
CN(C)C(Cn1ccnc1-c1ccccc1C(=O)O)c1ccccc1Cl (centres undefined),-35.49,8.081,-0.5115,7.46,5.39

The last 4 entries again:

structure	Leishmania in macrophages	TcHisRS	CoaBC	ClpP1P2	PfKRS1
CNc1nc(C2CCCN2C(C)=O)nc2c1CN(CCO)CC2.O=CO (centres undefined)	2.67 and 21.02	-	-	-	-
COc1ccc(S(=O)(=O)N2CCc3ccc(F)cc32)cc1C(=O)O	22.27	0.565	0.7833	-22.78	0.4494
COc1cc(N2CCC3(CCN(C(=O)c4cccnc4)CC3)C2)ncn1	-	4.372	2.397	0.03348	5.028
CN(C)C(Cn1ccnc1-c1ccccc1C(=O)O)c1ccccc1Cl (centres undefined)	-35.49	8.081	-0.5115	7.46	5.39